We go through 29 molecules from PubChem BioAssay AID256 (DTP/NCI, 2004).

The list shows only some results of the screen, not a fair sample: it gathers tests that were run many times, whatever their T/C, doses with no T/C, and many T/C values between a quarter and a half above the control. Further doses and runs are listed elsewhere. T/C: endpoint of the treated group in % of that of the vehicle group. Some doses have a count of surviving animals in place of a T/C: the source holds a T/C of zero for them, seemingly a mark for toxic or unscored doses. Some doses without a T/C left all or most animals alive at the check, yet need not have been tolerated: the source hardly ever lists a survival T/C far under the control, and the zero likely stands for such cases as well. Counts of survivors are from the toxicity check (mostly the fifth day) where no day follows; animals may have died later. Schedules are NCI's codes, read here as Q, the interval in days (D) or hours (H), X, the number of doses. Some doses were run more than once; their values stand side by side, smallest first. Where survival is the endpoint, this PubChem deposit counts one and a half times the control or more as active, and values a quarter to a half above the control carry no call in these data; other NCI protocols may use other cut-offs. Some T/C values carry the count of animals alive at the toxicity check (mostly the fifth day); where none is given, no animal had died by that day.

In the assay the test system is CD2F1 mice, L1210 leukemia ip, survival T/C. Briefly: NCI In Vivo Anticancer Drug Screen. Data for tumor model L1210 Leukemia (intraperitoneal) in CD2F1 (CDF1) mice. The settings on record: higher T/C = longer survival. On the procedure:
The antitumor activity of compounds was measured in mice bearing transplantable tumors. Survival or tumor size were measured and the results are expressed as the measurement made in the treated group (T) divided by the measurement made in the vehicle treated control group (C). The tumor model used in this assay is L1210 Leukemia (intraperitoneal) in CD2F1 (CDF1) mice

Setting [1] is: T/C endpoint: mean survival time, dose: 4.0 mg/kg/injection, schedule: Q01DX005 (ip), vehicle: sodium bicarbonate.
Where [2] appears, read: T/C endpoint: mean survival time, dose: 200.0 mg/kg/injection, schedule: Q04DX003 (ip), vehicle: saline with Tween-80.
[3] abbreviates: T/C endpoint: mean survival time, dose: 400.0 mg/kg/injection, schedule: Q04DX003 (ip), vehicle: saline with Tween-80.
Setting [4] is: T/C endpoint: mean survival time, dose: 100.0 mg/kg/injection, schedule: Q04DX003 (ip), vehicle: saline with Tween-80.
Setting [5] is: T/C endpoint: mean survival time, dose: 400.0 mg/kg/injection, schedule: Q01DX009 (ip), vehicle: saline with Tween-80.
[6] abbreviates: T/C endpoint: mean survival time, dose: 400.0 mg/kg/injection, schedule: Q01DX001 (ip), vehicle: saline.
Setting [7] is: T/C endpoint: mean survival time, dose: 200.0 mg/kg/injection, schedule: Q01DX009 (ip), vehicle: saline with Tween-80.

With `Cc1nc2c(nc1C)C(=O)C(N1CCOCC1)=CC2=O`, the survivor count (T/C endpoint: mean survival time, dose: 50.0 mg/kg/injection, schedule: Q01DX001 (ip), vehicle: saline) is recorded as 1 of 6.

Regarding `Nc1nc(N)c2nc(CSc3ccc(C(=O)NC(CCC(=O)O)C(=O)O)cc3)ccc2n1` (centres undefined), the T/C reads like this: (T/C endpoint: mean survival time, dose: 0.25 mg/kg/injection, schedule: Q01DX005 (ip), vehicle: sodium bicarbonate) 136 % of control; (T/C endpoint: mean survival time, dose: 0.5 mg/kg/injection, schedule: Q01DX005 (ip), vehicle: sodium bicarbonate) 140 % of control; (T/C endpoint: mean survival time, dose: 1.0 mg/kg/injection, schedule: Q01DX005 (ip), vehicle: sodium bicarbonate) 142 and 144 % of control; (T/C endpoint: mean survival time, dose: 2.0 mg/kg/injection, schedule: Q01DX005 (ip), vehicle: sodium bicarbonate) 142 % of control; under setting [1], 148 % of control. Also, the survivor count by setting is: under setting [1], 6 of 6; (T/C endpoint: mean survival time, dose: 8.0 mg/kg/injection, schedule: Q01DX005 (ip), vehicle: sodium bicarbonate) 5 of 6; (T/C endpoint: mean survival time, dose: 16.0 mg/kg/injection, schedule: Q01DX005 (ip), vehicle: sodium bicarbonate) 5 of 6.

For the molecule `O=S(=O)(CS(=O)(=O)Nc1ccccc1)Nc1ccccc1`, the survivor count under setting [2] is 3 of 6 and the survivor count under setting [3] is reported as 2 of 6.

In the case of `CCCCCCCCCCCCCCCCOc1ccc(-c2cc(Cl)c3cc(S(=O)(=O)F)ccc3n2)cc1S(=O)(=O)F`, the survivor count under setting [4] is recorded as 6 of 6 and the survivor count under setting [5] is 2 of 6.

In the case of `ClCC[Se](Cl)(Cl)c1ccccc1`, the survivor count reads like this: (T/C endpoint: mean survival time, dose: 12.5 mg/kg/injection, schedule: Q01DX009 (ip), vehicle: saline) 3 of 6 and 5 of 6; (T/C endpoint: mean survival time, dose: 25.0 mg/kg/injection, schedule: Q01DX009 (ip), vehicle: saline) 0 of 6 and 3 of 6.

`ClCC(Cl)CN1CCCCC1` (centres undefined): the survivor count (T/C endpoint: mean survival time, dose: 100.0 mg/kg/injection, schedule: Q01DX009 (ip), vehicle: saline) was 0 of 6.

For `O=C(CCl)Nc1ccc(-c2c(NC(=O)CCl)ncc3ccccc23)cc1`, for the setting “T/C endpoint: mean survival time, dose: 300.0 mg/kg/injection, schedule: Q04DX003 (ip), vehicle: other”, the survivor count was 0 of 3.

Take `O=C(O)/C=C\C(=O)Nc1ccc(Cl)cc1Cl`: the survivor count under setting [5] was 1 of 6.

Regarding `CCn1c(C)[n+](CC)c2ccc(C(F)(F)F)cc21`, the survivor count (T/C endpoint: mean survival time, dose: 300.0 mg/kg/injection, schedule: Q01DX001 (ip), vehicle: saline) was 0 of 6.

For the molecule `O=NN(CCF)C(=O)NC1C(O)CCCC1O` (centres undefined), the T/C (T/C endpoint: median survival time, dose: 1.25 mg/kg/injection, schedule: Q04DX002 (ip), vehicle: saline) is 125 % of control and the T/C (T/C endpoint: median survival time, dose: 2.5 mg/kg/injection, schedule: Q04DX002 (ip), vehicle: saline) is 130 % of control. The survivor count runs as follows: (T/C endpoint: median survival time, dose: 80.0 mg/kg/injection, schedule: Q04DX002 (ip), vehicle: saline) 3 of 6; (T/C endpoint: median survival time, dose: 160.0 mg/kg/injection, schedule: Q04DX002 (ip), vehicle: saline) 2 of 6; (T/C endpoint: median survival time, dose: 320.0 mg/kg/injection, schedule: Q04DX002 (ip), vehicle: saline) 0 of 6.

Regarding `CC(C(=O)O)C1(O)CCCCC1` (centres undefined), the survivor count by setting is: under setting [4], 0 of 6; under setting [2], 0 of 6; under setting [3], 0 of 6.

As for `OC[CH2][Hg][Br]`, the survivor count (T/C endpoint: mean survival time, dose: 6.0 mg/kg/injection, schedule: Q01DX009 (ip), vehicle: saline) is recorded as 6 of 6.

`N#Cc1cn(C2CCCCC2)c2ncccc12`: the survivor count (T/C endpoint: mean survival time, dose: 400.0 mg/kg/injection, schedule: Q04DX003 (ip), vehicle: saline) is 1 of 3.

`OCC1OC(n2cnc3c(SSc4ncnc5c4ncn5C4CC(O)C(CO)O4)ncnc32)CC1O` (centres undefined): the T/C runs as follows: (T/C endpoint: mean survival time, dose: 267.0 mg/kg/injection, schedule: Q01DX001 (ip), vehicle: saline) 125 % of control [5 of 6 alive]; under setting [6], 130 % of control; (T/C endpoint: mean survival time, dose: 600.0 mg/kg/injection, schedule: Q01DX001 (ip), vehicle: saline) 131 % of control [5 of 6 alive].

Regarding `CCOc1ccc(C(C)c2cc3c(cc2OC)OCO3)cc1` (centres undefined), the survivor count is, setting by setting: (T/C endpoint: median survival time, dose: 400.0 mg/kg/injection, schedule: Q01DX009 (ip), vehicle: distilled water + Tween-80) 3 of 6; (T/C endpoint: median survival time, dose: 400.0 mg/kg/injection, schedule: Q01DX009 (ip), vehicle: saline with Tween-80) 4 of 6.

On to `O=S(Nc1ccccc1)Nc1ccccc1`, for which the survivor count under setting [7] is recorded as 3 of 6 and the survivor count under setting [5] is 2 of 6.

With `CN(C)/N=C(\CBr)c1ccc([N+](=O)[O-])cc1`, the survivor count under setting [6] is 3 of 6.

Consider `O=C(O)c1ccc([N+](=O)[O-])cc1C(=O)O.[NH-]C1CCCCC1[NH-].[Pt+2]`, for which the T/C was 129 % of control (T/C endpoint: median survival time, dose: 12.5 mg/kg/injection, schedule: Q04DX003 (ip), vehicle: saline); 130 and 134 % of control (T/C endpoint: median survival time, dose: 25.0 mg/kg/injection, schedule: Q04DX003 (ip), vehicle: saline); 137 % of control (T/C endpoint: median survival time, dose: 50.0 mg/kg/injection, schedule: Q04DX003 (ip), vehicle: saline). Besides, the survivor count (T/C endpoint: median survival time, dose: 200.0 mg/kg/injection, schedule: Q04DX003 (ip), vehicle: saline) is reported as 6 of 6.

With `COc1ccc2[nH]cc(CCN(C)C)c2c1`, the survivor count is recorded as 6 of 6 under setting [4], 6 of 6 under setting [2] and 5 of 6 under setting [3].

`CC1(C)C2CC=C(CCCc3ccccc3)C1C2` (centres undefined): under setting [3], the survivor count is 3 of 6.

As to `CSCS(=O)C[C@H](CO)NC(=O)/C=C/c1c(C)[nH]c(=O)[nH]c1=O` (some centres undefined), the T/C (T/C endpoint: mean survival time, dose: 0.3 mg/kg/injection, schedule: Q01DX009 (ip), vehicle: water) was 132 % of control. Besides, the survivor count runs as follows: (T/C endpoint: mean survival time, dose: 0.6 mg/kg/injection, schedule: Q01DX009 (ip), vehicle: water) 6 of 6; (T/C endpoint: mean survival time, dose: 1.0 mg/kg/injection, schedule: Q01DX009 (ip), vehicle: saline) 6 of 6; (T/C endpoint: mean survival time, dose: 1.2 mg/kg/injection, schedule: Q01DX009 (ip), vehicle: water) 2 of 6 and 5 of 6.

`CCOP(=O)(NCCCSC)OCC`: the survivor count is recorded as 0 of 6 (T/C endpoint: mean survival time, dose: 100.0 mg/kg/injection, schedule: Q01DX001 (ip), vehicle: saline with Tween-80); 0 of 6 (T/C endpoint: mean survival time, dose: 200.0 mg/kg/injection, schedule: Q01DX001 (ip), vehicle: saline with Tween-80); 0 of 6 (T/C endpoint: mean survival time, dose: 400.0 mg/kg/injection, schedule: Q01DX001 (ip), vehicle: saline with Tween-80).

Take `ON1C=CC2C=CC1c1ccccc12` (centres undefined): for the setting “T/C endpoint: median survival time, dose: 400.0 mg/kg/injection, schedule: Q04DX002 (ip), vehicle: saline with Tween-80”, the survivor count is recorded as 2 of 3.

`COC(=O)[C@H]1[C@H]2C[C@@H]3c4[nH]c5cc(OC)ccc5c4CCN3C[C@H]2C[C@@H](OC(=O)c2cc(OC)c(OC)c(OC)c2)[C@@H]1OC`: the survivor count runs as follows: (T/C endpoint: mean survival time, dose: 12.0 mg/kg/injection, schedule: Q01DX009 (ip), vehicle: saline with Tween-80) 6 of 6; (T/C endpoint: mean survival time, dose: 25.0 mg/kg/injection, schedule: Q04DX003 (ip), vehicle: saline with Tween-80) 6 of 6; under setting [4], 6 of 6; under setting [2], 5 of 6; under setting [3], 4 of 6.

With `CC(Br)C1(c2ccccc2)OCCO1` (centres undefined), the survivor count is 3 of 6 under setting [7] and 0 of 6 under setting [5].

Turning to `Nc1nc(=O)[nH]c(N)c1N`, the survivor count (T/C endpoint: mean survival time, dose: 400.0 mg/kg/injection, schedule: Q04DX002 (ip), vehicle: saline) is given as 1 of 3.

For the molecule `COc1ccc(NC(=O)Nc2ccc(Cl)cc2OC)cc1`, where the note is “T/C endpoint: mean survival time, dose: 100.0 mg/kg/injection, schedule: Q04DX002 (ip), vehicle: saline with Tween-80”, the survivor count is given as 3 of 3.

`CNC(=O)CCC(NC(=O)c1ccc(N(C)Cc2cnc3nc(N)nc(N)c3n2)cc1)C(=O)O` (centres undefined): the T/C (T/C endpoint: mean survival time, dose: 50.0 mg/kg/injection, schedule: Q01DX009 (ip), vehicle: sodium bicarbonate) was 133 % of control.

`COC(=O)C(CSC(c1ccccc1)(c1ccccc1)c1ccccc1)NC(=O)CCNC(=O)OCc1ccccc1` (centres undefined): the survivor count (T/C endpoint: mean survival time, dose: 200.0 mg/kg/injection, schedule: Q01DX009 (ip), vehicle: water) was 6 of 6.
